Some results were stated once for a whole list of compounds, not compound by compound. At least one compound was matched to its structure with a doubt left.
System: Salmonella sp.
Assay: Survival of Salmonella on sliced tomatoes with low levels of antimicrobials at 4° C. (Example 3)
Format: cell-based
Conditions: after 10 days
Method: The effect of low levels of specified antimicrobials on survival of Salmonella sp. in packaged sliced tomato under refrigeration (4±1° C.) was determined. The volatile antimicrobials tested were chlorine dioxide, allyl isothiocyanate cyclodextrine, origanum cyclodextrine, cinnamaldehyde cyclodextrine and basil cyclodextrine.
Slices were inoculated with 5 Salmonella strains that included S. poona (cantaloupe associated outbreak), S. stanley H 1256 (Alfafa sprout associated outbreak), S. baildon (tomato associated outbreak), S. typhimurium DT 104 (multiple antibiotic resistant) and S. montevideo (tomato associated outbreak). […] The inoculated packages were stored at 4±1° C. for 10 days.
Inoculated and uninoculated tomato slices were analyzed at 0, 5 and 10 days. […] The plates were incubated at 37° C. for 18 hr and typical Salmonella colonies counted. The absorbent (fluid in case of Control 1 trays) was analyzed for Salmonella and Aerobic Plate Count by plating appropriate dilution of the gel/fluid on MacConkey agar plates and Plate Count Agar.

| Compound | reduction of Salmonella on the tomatoes compared to Control 2 tomatoes with no volatile antimicrobial |
| --- | --- |
| O=CC=Cc1ccccc1 [Cinnamaldehyde, cinnamaldehyde] | 0.8-0.85 log units |
| [O][Cl+][O-] [Chlorine Dioxide, chlorine dioxide] | 0.8-0.85 log units |

— patent publication US7863350B2, “Food preservation compositions and methods of use thereof” (priority 2007, dated 2011)
